Reference: paper PMC3219604
Numbering of substitutions follows the chain as printed. The exact form of at least one protein or probe is not confirmed. For part of these data: Protein sequences can lack the tags named with them.

What was measured:
Assay in all cases: EMSA
GFP control = details: 20 mM Tris-Cl pH 8.0, 1 mM EDTA, 5 ug/mL calf thymus DNA, 10 nM DNA, 0.11-0.13 uM protein, 30 min at 20 C; gels at 4 C; recombinant protein; label: 5'-32P upper strand; counted as no binding
[1] = target: T1, OrfAB-GFP GMF13 S57G S72G (UniProt P51026); details: 20 mM Tris-Cl pH 8.0, 1 mM EDTA, 5 ug/mL calf thymus DNA, 10 nM DNA, 0.11-0.13 uM protein, 30 min at 20 C; gels at 4 C; recombinant protein; protein details: 6xHis, C-terminal GFPuv; label: 5'-32P upper strand
T1 sequence (looked up, limits assumed): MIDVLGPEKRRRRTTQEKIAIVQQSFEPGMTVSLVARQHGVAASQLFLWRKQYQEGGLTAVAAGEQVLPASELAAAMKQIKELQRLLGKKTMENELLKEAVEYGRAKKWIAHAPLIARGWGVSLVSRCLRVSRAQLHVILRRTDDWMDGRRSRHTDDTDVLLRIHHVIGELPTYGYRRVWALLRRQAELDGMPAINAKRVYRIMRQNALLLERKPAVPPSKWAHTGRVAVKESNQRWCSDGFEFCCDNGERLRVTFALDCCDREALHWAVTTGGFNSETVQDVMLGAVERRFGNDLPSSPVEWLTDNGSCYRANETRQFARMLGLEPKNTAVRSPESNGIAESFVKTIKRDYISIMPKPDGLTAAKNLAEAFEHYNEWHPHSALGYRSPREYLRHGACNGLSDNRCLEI

[2] = target: OrfAB-GFP GMF29 L58I L73I (UniProt P51026); details: 20 mM Tris-Cl pH 8.0, 1 mM EDTA, 5 ug/mL calf thymus DNA, 10 nM DNA, 0.11-0.13 uM protein, 30 min at 20 C; gels at 4 C; recombinant protein; protein details: 6xHis, C-terminal GFPuv; label: 5'-32P upper strand; counted as no binding
[3] = target: T2, OrfAB-GFP GMF38 A341T A356T (UniProt P51026); details: 20 mM Tris-Cl pH 8.0, 1 mM EDTA, 5 ug/mL calf thymus DNA, 10 nM DNA, 0.11-0.13 uM protein, 30 min at 20 C; gels at 4 C; recombinant protein; protein details: 6xHis, C-terminal GFPuv; label: 5'-32P upper strand
T2 sequence (looked up, limits assumed): T1 sequence (looked up, limits assumed) with G57S, A341T

OrfAB-GFP GMF4 A42T A57T = target: T3, OrfAB-GFP GMF4 A42T A57T (UniProt P51026); details: 20 mM Tris-Cl pH 8.0, 1 mM EDTA, 5 ug/mL calf thymus DNA, 10 nM DNA, 0.11-0.13 uM protein, 30 min at 20 C; gels at 4 C; recombinant protein; protein details: 6xHis, C-terminal GFPuv; label: 5'-32P upper strand
T3 sequence (looked up, limits assumed): T1 sequence (looked up, limits assumed) with A42T, G57S

[4] = target: T4, OrfAB-GFP GMF71 E391K E406K (UniProt P51026); details: 20 mM Tris-Cl pH 8.0, 1 mM EDTA, 5 ug/mL calf thymus DNA, 10 nM DNA, 0.11-0.13 uM protein, 30 min at 20 C; gels at 4 C; recombinant protein; protein details: 6xHis, C-terminal GFPuv; label: 5'-32P upper strand
T4 sequence (looked up, limits assumed): T1 sequence (looked up, limits assumed) with G57S, E391K

Which results are given for “GGATCCTTAAGTGATAACAGATGTCTGGAAATATAGGGGCAAATCCAGCG (double strand) [IRR 50-mer]”?
binding signal (binding score (0-5)) (GFP control): 0; binding signal (binding score (0-5)) [1]: 3; binding signal (binding score (0-5)) [2]: 0; binding signal (binding score (0-5)) [3]: 5; binding signal (binding score (0-5)) (OrfAB-GFP GMF4 A42T A57T): 5; binding signal (binding score (0-5)) [4]: 2.5
